# Laboratory results taken from the supplement of paper PMC12889115.
# The list shows a part of the results. Values are raw readings; no control value is given beside them.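 First-pass screen: polymyxin B was added at a level that permeabilizes the Salmonella outer membrane while sparing the inner membrane. DMSO wells, with and without polymyxin B, defined maximum growth. Because plates differed from one another, each plate's data were ranked separately and the compounds with the lowest OD600 were carried forward as hits.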
# Test system: Salmonella enterica serovar Typhimurium SL1344
# Experiment: bacterial growth OD600 after 18 h with compound and polymyxin B; higher = more bacterial growth (less inhibition)
# Details: 50 µM, Mueller-Hinton broth
SMILES,bacterial growth OD600 (polymyxin B 0.75 µg/mL),bacterial growth OD600 (polymyxin B 1 µg/mL)
COC(=O)CCC(=O)N1CCCC(CCc2ccc(OC)cc2)C1 (centres undefined),0.743,–
CO[C@H]1[C@H](NC(=O)c2ccncc2)c2ccccc2C12CCN(C(=O)CCc1scnc1C)CC2,0.847,–
OCC1(CCOc2ccccc2)CCN(Cc2cc3c(cc2Cl)OCO3)CC1,–,0.756
COc1cc(CC2(CCC(=O)NC(C)Cc3cccs3)CCC(=O)N2)ccc1F (centres undefined),0.748,–
O=C(CCc1ccc2c(c1)OCO2)NC1CC(=O)N(CC2CCCCC2)C1 (centres undefined),–,0.917
COc1cccc2c1OCC(NCCc1ccc(C(F)(F)F)cc1)C2 (centres undefined),0.517,–
COc1ccccc1C1(CC(=O)N(Cc2c(C)nn(C)c2C)C2CC2)CC(=O)N(C)C1=O (centres undefined),1.02,–
CCC1CN(CC(=O)NCC2CCN(C(C)C)CC2)Cc2cc(OC)ccc2O1 (centres undefined),0.831,–
CN(C)C(=O)c1ccc(N2CCC(NCc3ccccc3OC(F)(F)F)CC2)cc1,0.724,–
CC(C)n1cc(C(=O)NC2CCCCCC2)c(=O)c(C(=O)N2CCSCC2)c1,0.888,–
O=C(Nc1ccc(Oc2cccnc2)cc1)C1CCN(Cc2ccccc2F)CC1,–,0.588
CC1(C)CC(C(=O)NCC2Cc3cc(-c4cccc(OC(F)(F)F)c4)ccc3O2)CCO1 (centres undefined),0.012,–
CC1CN(CC2CC2)Cc2cc(Cl)ccc2O1 (centres undefined),0.786,–
O=C(NC1CCCC1)C1CCCN(C2CCN(Cc3ccccc3)CC2)C1 (centres undefined),0.82,–
COC(=O)C1CCN(Cc2c(C(=O)N(C)CCc3ccccc3)nc3c(C)cccn23)CC1,–,1.02
Cc1cc2nc(N3CCC(C(=O)NCCOC(C)C)CC3)nc(C)c2cc1C,0.854,–
COc1cc(CC2(CCC(=O)N(C)Cc3cc4ccccc4s3)CCC(=O)N2)ccc1F (centres undefined),0.755,–
CCOC(=O)N1CCC(N2CCCC(CNC(=O)CCc3ccccc3)C2)CC1 (centres undefined),0.879,–
CO[C@H]1[C@H](NC(=O)CSC)c2ccccc2C12CCN(Cc1cnn(-c3ccc(F)cc3)c1)CC2,0.939,–

# One compound at a time (already shown). Order of values: bacterial growth OD600 (polymyxin B 0.75 µg/mL) | bacterial growth OD600 (polymyxin B 1 µg/mL)
# COc1ccccc1C1(CC(=O)N(Cc2c(C)nn(C)c2C)C2CC2)CC(=O)N(C)C1=O (centres undefined) in the list: 1.02 | –
# CC1(C)CC(C(=O)NCC2Cc3cc(-c4cccc(OC(F)(F)F)c4)ccc3O2)CCO1 (centres undefined) in the list: 0.012 | –
